Data: the supplement of paper PMC8728848
The other results are listed elsewhere or left out.

Legend:
Assay in all cases: glycan array binding signal (z-score within array); higher = stronger binding
Conditions in all cases: glycan notation: IUPAC condensed, linker removed
Neu5Ac(a2-8)Neu5Ac = target: Neu5Ac(a2-8)Neu5Ac
Outline: (§1)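 The binding signal is a Z-score computed within each array and averaged over linkers. Arrays of the same protein sequence at different concentrations or buffers were also averaged together. Data originate from 3228 arrays in the Consortium for Functional Glycomics database, kept only where the protein sequence was available.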

[1] = target: Neu5Ac(a2-8)Neu5Ac(a2-3)Gal(b1-3)GalNAc(b1-4)[Neu5Ac(a2-3)]Gal(b1-4)Glc
Outline: as §1

[2] = target: Neu5Ac(a2-8)Neu5Ac(a2-3)Gal(b1-3)GalNAc(b1-4)[Neu5Ac(a2-8)Neu5Ac(a2-3)]Gal(b1-4)Glc
Outline: as §1

[3] = target: Neu5Ac(a2-8)Neu5Ac(a2-3)Gal(b1-4)Glc
Outline: as §1

[4] = target: Neu5Ac(a2-8)Neu5Ac(a2-3)Gal(b1-4)GlcNAc
Outline: as §1

[5] = target: Neu5Ac(a2-8)Neu5Ac(a2-3)[Gal(b1-3)GalNAc(b1-4)]Gal(b1-4)Glc
Outline: as §1

[6] = target: Neu5Ac(a2-8)Neu5Ac(a2-3)[GalNAc(b1-4)]Gal(b1-4)Glc
Outline: as §1

[7] = target: Neu5Ac(a2-8)Neu5Ac(a2-8)Neu5Ac
Outline: as §1

[8] = target: Neu5Ac(a2-8)Neu5Ac(a2-8)Neu5Ac(a2-3)Gal(b1-4)Glc
Outline: as §1

[9] = target: Neu5Ac(a2-8)Neu5Ac(a2-8)Neu5Ac(a2-3)[Gal(b1-3)GalNAc(b1-4)]Gal(b1-4)Glc
Outline: as §1

[10] = target: Neu5Ac(a2-8)Neu5Ac(a2-8)Neu5Ac(a2-3)[GalNAc(b1-4)]Gal(b1-4)Glc
Outline: as §1

[11] = target: Neu5Ac(a2-8)Neu5Ac(a2-8)Neu5Ac(a2-8)Neu5Ac(a2-3)[GalNAc(b1-4)]Gal(b1-4)Glc
Outline: as §1

[12] = target: Neu5Ac(a2-8)Neu5Gc(a2-3)Gal(b1-4)GlcNAc
Outline: as §1

[13] = target: Neu5Ac(b2-6)Gal(b1-4)GlcNAc
Outline: as §1

Neu5Ac(b2-6)GalNAc = target: Neu5Ac(b2-6)GalNAc
Outline: as §1

[14] = target: Neu5Ac9Ac(a2-3)Gal(b1-3)GlcNAc
Outline: as §1

[15] = target: Neu5Ac9Ac(a2-3)Gal(b1-4)GlcNAc
Outline: as §1

[16] = target: Neu5Ac9Ac(a2-6)Gal(b1-4)GlcNAc
Outline: as §1

[17] = target: Neu5Gc(a2-3)Gal(b1-3)GlcNAc
Outline: as §1

[18] = target: Neu5Gc(a2-3)Gal(b1-3)[Fuc(a1-4)]GlcNAc
Outline: as §1

Neu5Gc(a2-3)Gal(b1-4)Glc = target: Neu5Gc(a2-3)Gal(b1-4)Glc
Outline: as §1

[19] = target: Neu5Gc(a2-3)Gal(b1-4)GlcNAc
Outline: as §1

[20] = target: Neu5Gc(a2-3)Gal(b1-4)GlcNAc(b1-3)Gal(b1-4)GlcNAc(b1-2)Man(a1-3)[Neu5Gc(a2-3)Gal(b1-4)GlcNAc(b1-3)Gal(b1-4)GlcNAc(b1-2)Man(a1-6)]Man(b1-4)GlcNAc(b1-4)GlcNAc
Outline: as §1

[21] = target: Neu5Gc(a2-3)Gal(b1-4)[Fuc(a1-3)]GlcNAc
Outline: as §1

[22] = target: Neu5Gc(a2-6)Gal(b1-4)GlcNAc
Outline: as §1

Neu5Gc(a2-6)GalNAc = target: Neu5Gc(a2-6)GalNAc
Outline: as §1

[23] = target: Neu5Gc(a2-8)Neu5Ac(a2-3)Gal(b1-4)GlcNAc
Outline: as §1

[24] = target: Neu5Gc(a2-8)Neu5Gc(a2-3)Gal(b1-4)GlcNAc
Outline: as §1

[25] = target: Neu5Gc(a2-8)Neu5Gc(a2-3)Gal(b1-4)GlcNAc(b1-3)Gal(b1-4)GlcNAc
Outline: as §1

[26] = target: Neu5Gc(a2-8)Neu5Gc(a2-6)Gal(b1-4)GlcNAc
Outline: as §1

[27] = target: Neu5Gc(b2-6)Gal(b1-4)GlcNAc
Outline: as §1

B1: Aap lectin (Staphylococcus epidermidis) (protein)
chain: VNLNYSSPFMSLLSMPADSSSNNTKNTIDIPPTTVKGRDNYDFYGRVDIESNPTDLNATNLTRYNYGQPPGTTTAGAVQFKNQVSFDKDFDFNIRVANNRQSNTTGADGWGFMFSKKDGDDFLKNGGILREKGTPSAAGFRIDTGYYNNDPLDKIQKQAGQGYRGYGTFVKNDSQGNTSKVGSGTPSTDFLNYADNTTNDLDGKFHGQKLNNVNLKYNASNQTFTATYAGKTWTATLSELGLSPTDSYNFLVTSS
glycan array binding signal (z-score) (Neu5Ac(a2-8)Neu5Ac): -0.919 | glycan array binding signal (z-score) [1]: -0.872 | glycan array binding signal (z-score) [2]: 1.01 | glycan array binding signal (z-score) [3]: -0.83 | glycan array binding signal (z-score) [4]: -0.904 | glycan array binding signal (z-score) [5]: -0.121 | glycan array binding signal (z-score) [6]: 0.239 | glycan array binding signal (z-score) [7]: -0.51 | glycan array binding signal (z-score) [8]: -0.827 | glycan array binding signal (z-score) [9]: -0.084 | glycan array binding signal (z-score) [10]: 0.064 | glycan array binding signal (z-score) [11]: -0.444 | glycan array binding signal (z-score) [12]: -0.896 | glycan array binding signal (z-score) [13]: -0.739 | glycan array binding signal (z-score) (Neu5Ac(b2-6)GalNAc): -0.527 | glycan array binding signal (z-score) [14]: 0.704 | glycan array binding signal (z-score) [15]: -0.7 | glycan array binding signal (z-score) [16]: -0.754 | glycan array binding signal (z-score) [17]: 0.725 | glycan array binding signal (z-score) [18]: 0.428 | glycan array binding signal (z-score) (Neu5Gc(a2-3)Gal(b1-4)Glc): -0.1 | glycan array binding signal (z-score) [19]: -0.511 | glycan array binding signal (z-score) [20]: 0.099 | glycan array binding signal (z-score) [21]: 1.29 | glycan array binding signal (z-score) [22]: -0.275 | glycan array binding signal (z-score) (Neu5Gc(a2-6)GalNAc): -0.523 | glycan array binding signal (z-score) [23]: -0.74 | glycan array binding signal (z-score) [24]: 1.51 | glycan array binding signal (z-score) [25]: -0.285 | glycan array binding signal (z-score) [26]: -0.88 | glycan array binding signal (z-score) [27]: 0.72
